Reference: patent US20090285862A1, “METHODS AND COMPOSITION FOR TREATMENT OF INFLAMMATORY PAIN” (priority 2006, published 2009)
For at least one compound, name, drawing or mass did not settle the structure.

Test system: carrageenan-induced allodynia
Test: carrageenan paw inflammation, reversal of allodynia assessed with Von Frey hairs
Type: in vivo, rat
Details: rats, IP, non-sedating doses, drug administered alone
Procedure: Experiments were performed on male Wistar rats (wt 150-220 g). Three series of experiments were performed in an observer blinded fashion with saline (negative) controls and GABAPentin (positive) controls. The investigations were in three stages: • 1. a range of doses of aprepitant (an example of a NK antagonist) given alone and in combination with flupiritine (an example of an inhibitor of neuronal excitation) were tested for sedating effects using the open field activity monitor. In this way it was determined which doses of drug and drug combinations could be used to test for analgesic effects without causing sedation; • 2. a range of doses of aprepitant given alone and in combination with flupirtine were tested for the ability to reverse the allodynia effect causes by intraplantar injection of carrageenan; • 3. a range of doses of aprepitant given alone and in combination with flupirtine were tested for the ability to reverse the allodynia and hyperalgesia caused by streptozotocin-induced diabetic neuropathy.
Inflammation involves the release of a number of substances into the tissues following injury. These substances including prostaglandins, bradykinin, inflammatory peptides such as substance P and calcitonin gene related peptide and also a number of cytokines. […] Nociceptive thresholds were measured in groups of rats prior to the intraplantar injection. […]

CCOC(=O)Nc1ccc(NCc2ccc(F)cc2)nc1N [flupirtine]
antinociception, reversal of carrageenan-induced allodynia (Von Frey): neither flupirtine or aprepitant given at non-sedating doses caused any antinociception
